Here are results for one substance from publication PMC9290910, “Neuropilin‐1 is required for endothelial cell adhesion to soluble vascular endothelial growth factor receptor 1” (The Febs Journal, 2021).

These are yes or no findings as the source states them, for the method shown. Binding calls can cover weak binding; strength is not graded here.

The target in this experiment is T1, Recombinant human NRP‐1 (human) (UniProt O14786).
T1 sequence: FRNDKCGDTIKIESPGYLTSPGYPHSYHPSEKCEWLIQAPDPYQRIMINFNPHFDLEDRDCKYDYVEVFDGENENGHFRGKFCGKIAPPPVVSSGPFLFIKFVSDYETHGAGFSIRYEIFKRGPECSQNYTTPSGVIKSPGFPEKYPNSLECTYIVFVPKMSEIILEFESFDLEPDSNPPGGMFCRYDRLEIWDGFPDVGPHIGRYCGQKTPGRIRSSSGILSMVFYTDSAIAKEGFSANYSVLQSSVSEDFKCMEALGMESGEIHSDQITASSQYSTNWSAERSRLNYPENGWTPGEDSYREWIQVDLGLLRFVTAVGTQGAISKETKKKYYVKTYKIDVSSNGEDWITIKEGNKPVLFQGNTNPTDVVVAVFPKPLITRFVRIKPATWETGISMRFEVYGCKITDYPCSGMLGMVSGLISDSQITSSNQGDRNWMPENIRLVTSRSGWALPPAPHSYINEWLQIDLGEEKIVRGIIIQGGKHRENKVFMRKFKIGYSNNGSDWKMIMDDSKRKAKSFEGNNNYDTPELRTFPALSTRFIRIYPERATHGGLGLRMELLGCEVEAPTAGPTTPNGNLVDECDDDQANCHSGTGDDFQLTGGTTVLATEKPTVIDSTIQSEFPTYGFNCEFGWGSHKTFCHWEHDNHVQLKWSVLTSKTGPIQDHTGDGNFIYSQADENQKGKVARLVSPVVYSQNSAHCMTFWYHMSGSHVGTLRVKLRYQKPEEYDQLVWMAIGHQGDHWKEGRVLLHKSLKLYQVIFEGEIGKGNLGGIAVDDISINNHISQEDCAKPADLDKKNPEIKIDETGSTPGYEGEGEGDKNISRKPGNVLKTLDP
The experiment can be described thus: SPR; competition: NRP-1 immobilised by amine coupling; protein analyte at a fixed concentration (VEGFR-1/Fc 5 nM; α5β1 integrin 200 nM; semaphorin 3A 200 nM) injected together with peptide at different concentrations; HEPES-buffered saline; both purified.

In the case of Purified α5β1 integrin (complex), the binding entry is recorded as “binds”.
